No constants are given. Whether binding was seen depends on the method and setting. In cells and extracts the contact can be indirect. Here binding means that the protein was enriched with, or labelled near, the bait; the list need not be complete. For some assays here: Tags and fused reporters may be left off the sequences shown. Values belong to the molecule of their own block, whether it stands above or below them.
How the values were obtained:
Flag-MMS22L (human) = biological target: T1, Flag-MMS22L (human) (UniProt Q6ZRQ5); test: affinity purification with mass spectrometry; Flag antibody IP of proteins released by benzonase from native chromatin of HU-treated HeLa cells stably expressing Flag-TONSL or Flag-MMS22L
T1 sequence: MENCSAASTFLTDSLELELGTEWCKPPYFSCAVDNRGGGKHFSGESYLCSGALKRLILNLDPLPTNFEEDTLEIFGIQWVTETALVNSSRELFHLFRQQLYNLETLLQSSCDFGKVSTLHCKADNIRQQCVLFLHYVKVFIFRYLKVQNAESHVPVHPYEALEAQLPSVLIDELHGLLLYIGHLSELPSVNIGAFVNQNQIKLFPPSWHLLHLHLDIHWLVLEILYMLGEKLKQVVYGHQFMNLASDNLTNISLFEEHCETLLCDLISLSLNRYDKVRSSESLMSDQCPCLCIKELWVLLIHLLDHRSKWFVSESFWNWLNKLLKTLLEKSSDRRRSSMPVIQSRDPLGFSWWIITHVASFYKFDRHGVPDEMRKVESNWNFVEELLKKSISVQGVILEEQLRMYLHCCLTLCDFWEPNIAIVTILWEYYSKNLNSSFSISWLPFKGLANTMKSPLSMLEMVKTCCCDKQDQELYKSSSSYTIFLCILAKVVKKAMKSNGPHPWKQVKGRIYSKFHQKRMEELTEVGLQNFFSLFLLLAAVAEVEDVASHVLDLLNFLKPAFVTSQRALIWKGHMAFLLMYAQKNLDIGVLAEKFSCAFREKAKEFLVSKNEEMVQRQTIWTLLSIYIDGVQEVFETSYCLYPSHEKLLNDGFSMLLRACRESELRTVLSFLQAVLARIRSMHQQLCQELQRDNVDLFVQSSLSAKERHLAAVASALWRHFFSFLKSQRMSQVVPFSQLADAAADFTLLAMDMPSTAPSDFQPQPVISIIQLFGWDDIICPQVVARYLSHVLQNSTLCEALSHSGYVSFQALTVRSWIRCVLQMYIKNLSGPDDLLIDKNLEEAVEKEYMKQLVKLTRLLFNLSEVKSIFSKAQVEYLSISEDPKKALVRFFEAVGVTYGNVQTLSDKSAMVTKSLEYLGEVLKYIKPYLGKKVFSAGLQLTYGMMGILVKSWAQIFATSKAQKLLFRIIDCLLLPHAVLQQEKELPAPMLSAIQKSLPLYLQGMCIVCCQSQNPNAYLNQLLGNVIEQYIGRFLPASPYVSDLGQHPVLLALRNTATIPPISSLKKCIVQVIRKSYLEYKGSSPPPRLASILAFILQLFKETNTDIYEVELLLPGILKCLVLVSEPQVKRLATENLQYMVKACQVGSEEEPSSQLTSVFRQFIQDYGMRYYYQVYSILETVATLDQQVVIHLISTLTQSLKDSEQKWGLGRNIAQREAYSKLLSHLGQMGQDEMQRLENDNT

Protein sequences, listed by entry. Tags and fused reporters are not part of them.
UniProt Q8IYD8: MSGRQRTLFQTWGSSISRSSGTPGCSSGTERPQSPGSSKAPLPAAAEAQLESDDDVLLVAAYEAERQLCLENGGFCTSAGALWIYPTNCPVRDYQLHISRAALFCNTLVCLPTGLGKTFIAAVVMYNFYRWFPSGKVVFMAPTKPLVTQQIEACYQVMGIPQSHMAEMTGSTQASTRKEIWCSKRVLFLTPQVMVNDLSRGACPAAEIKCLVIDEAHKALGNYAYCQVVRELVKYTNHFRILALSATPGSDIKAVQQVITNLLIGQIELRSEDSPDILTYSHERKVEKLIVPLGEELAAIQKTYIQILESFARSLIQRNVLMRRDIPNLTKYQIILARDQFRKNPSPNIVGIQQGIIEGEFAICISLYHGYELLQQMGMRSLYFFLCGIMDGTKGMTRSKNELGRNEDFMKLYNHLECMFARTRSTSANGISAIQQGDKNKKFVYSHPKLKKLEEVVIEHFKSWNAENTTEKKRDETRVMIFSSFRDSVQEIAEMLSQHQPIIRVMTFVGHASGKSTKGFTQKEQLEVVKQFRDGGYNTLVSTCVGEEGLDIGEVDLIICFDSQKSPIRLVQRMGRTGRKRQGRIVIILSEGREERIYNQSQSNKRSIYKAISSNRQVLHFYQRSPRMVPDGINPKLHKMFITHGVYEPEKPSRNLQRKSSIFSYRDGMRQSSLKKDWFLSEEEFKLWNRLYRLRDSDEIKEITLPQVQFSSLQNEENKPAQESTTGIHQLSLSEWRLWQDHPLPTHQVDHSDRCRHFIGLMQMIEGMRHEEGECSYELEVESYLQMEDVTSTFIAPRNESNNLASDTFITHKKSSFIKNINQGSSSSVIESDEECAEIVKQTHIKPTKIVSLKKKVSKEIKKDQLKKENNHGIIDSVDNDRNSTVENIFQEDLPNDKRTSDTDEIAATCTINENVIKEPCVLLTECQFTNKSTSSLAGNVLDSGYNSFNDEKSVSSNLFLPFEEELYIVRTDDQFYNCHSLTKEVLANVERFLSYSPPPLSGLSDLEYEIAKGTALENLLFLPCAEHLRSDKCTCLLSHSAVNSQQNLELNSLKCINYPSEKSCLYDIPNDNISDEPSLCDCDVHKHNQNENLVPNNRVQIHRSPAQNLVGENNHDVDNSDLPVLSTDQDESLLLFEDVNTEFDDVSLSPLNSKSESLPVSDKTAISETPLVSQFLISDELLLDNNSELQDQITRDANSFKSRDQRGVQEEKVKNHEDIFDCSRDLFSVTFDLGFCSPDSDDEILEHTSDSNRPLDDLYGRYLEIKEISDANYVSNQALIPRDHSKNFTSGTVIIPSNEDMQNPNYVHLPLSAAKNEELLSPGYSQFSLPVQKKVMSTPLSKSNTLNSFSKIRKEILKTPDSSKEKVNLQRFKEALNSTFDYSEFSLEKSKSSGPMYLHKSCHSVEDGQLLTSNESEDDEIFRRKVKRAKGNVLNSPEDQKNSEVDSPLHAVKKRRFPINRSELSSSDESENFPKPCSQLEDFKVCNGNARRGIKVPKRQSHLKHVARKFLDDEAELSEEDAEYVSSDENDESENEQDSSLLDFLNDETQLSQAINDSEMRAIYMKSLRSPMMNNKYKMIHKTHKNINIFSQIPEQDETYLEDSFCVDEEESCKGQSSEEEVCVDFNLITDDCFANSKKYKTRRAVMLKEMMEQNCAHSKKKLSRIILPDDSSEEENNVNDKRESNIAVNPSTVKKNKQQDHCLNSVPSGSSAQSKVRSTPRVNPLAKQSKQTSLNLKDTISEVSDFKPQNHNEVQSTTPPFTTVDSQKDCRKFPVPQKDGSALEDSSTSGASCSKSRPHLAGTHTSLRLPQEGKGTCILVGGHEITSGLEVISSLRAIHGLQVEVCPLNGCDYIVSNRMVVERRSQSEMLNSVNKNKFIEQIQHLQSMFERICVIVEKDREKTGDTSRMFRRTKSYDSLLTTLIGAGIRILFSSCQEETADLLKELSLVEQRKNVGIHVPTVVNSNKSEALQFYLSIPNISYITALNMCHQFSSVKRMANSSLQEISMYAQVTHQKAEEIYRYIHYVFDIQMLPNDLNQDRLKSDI
UniProt P54132: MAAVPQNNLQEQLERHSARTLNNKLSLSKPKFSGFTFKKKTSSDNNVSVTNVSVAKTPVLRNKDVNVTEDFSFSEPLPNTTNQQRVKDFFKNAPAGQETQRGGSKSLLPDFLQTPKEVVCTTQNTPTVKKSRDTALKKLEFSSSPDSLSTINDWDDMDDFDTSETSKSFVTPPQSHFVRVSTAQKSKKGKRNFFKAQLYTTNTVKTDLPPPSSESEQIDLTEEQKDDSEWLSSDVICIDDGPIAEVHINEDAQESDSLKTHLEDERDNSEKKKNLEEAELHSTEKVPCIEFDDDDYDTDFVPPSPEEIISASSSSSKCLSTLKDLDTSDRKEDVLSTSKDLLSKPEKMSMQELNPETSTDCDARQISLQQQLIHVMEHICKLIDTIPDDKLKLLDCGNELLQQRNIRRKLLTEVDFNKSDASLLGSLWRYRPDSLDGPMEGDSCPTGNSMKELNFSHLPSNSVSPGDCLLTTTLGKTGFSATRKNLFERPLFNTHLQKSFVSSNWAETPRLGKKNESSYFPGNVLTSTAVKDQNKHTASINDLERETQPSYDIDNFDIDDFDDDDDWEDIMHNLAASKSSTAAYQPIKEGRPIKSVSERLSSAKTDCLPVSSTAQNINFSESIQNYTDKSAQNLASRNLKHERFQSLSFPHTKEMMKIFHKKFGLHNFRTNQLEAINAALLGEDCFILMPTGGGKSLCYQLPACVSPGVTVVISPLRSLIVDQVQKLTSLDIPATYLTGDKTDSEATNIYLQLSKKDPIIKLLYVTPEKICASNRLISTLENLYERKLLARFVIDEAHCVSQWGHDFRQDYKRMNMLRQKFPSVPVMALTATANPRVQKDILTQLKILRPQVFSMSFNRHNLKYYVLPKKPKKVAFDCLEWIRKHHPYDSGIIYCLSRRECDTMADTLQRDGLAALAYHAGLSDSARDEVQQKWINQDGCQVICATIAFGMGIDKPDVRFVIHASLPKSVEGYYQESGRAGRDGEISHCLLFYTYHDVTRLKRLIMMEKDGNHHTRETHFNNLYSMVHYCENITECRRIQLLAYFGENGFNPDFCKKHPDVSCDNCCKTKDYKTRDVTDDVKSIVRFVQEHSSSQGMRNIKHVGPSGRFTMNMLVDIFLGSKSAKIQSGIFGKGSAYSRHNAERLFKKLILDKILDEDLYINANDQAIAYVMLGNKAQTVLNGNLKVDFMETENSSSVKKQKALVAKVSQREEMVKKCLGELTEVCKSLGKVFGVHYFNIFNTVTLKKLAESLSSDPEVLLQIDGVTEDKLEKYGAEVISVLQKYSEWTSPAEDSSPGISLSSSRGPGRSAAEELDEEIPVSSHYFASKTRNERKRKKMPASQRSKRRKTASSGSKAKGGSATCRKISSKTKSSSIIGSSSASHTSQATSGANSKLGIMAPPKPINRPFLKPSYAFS
UniProt P12004: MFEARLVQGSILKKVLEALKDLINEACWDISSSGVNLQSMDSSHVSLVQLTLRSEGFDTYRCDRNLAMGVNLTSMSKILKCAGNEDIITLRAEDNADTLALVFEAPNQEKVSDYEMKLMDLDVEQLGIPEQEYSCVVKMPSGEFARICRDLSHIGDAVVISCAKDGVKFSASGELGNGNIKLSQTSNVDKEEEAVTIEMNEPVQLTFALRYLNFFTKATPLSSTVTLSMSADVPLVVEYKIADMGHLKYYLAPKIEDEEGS

Flag-TONSL (human) = biological target: T2, Flag-TONSL (human) (UniProt Q96HA7); test: as above
T2 sequence: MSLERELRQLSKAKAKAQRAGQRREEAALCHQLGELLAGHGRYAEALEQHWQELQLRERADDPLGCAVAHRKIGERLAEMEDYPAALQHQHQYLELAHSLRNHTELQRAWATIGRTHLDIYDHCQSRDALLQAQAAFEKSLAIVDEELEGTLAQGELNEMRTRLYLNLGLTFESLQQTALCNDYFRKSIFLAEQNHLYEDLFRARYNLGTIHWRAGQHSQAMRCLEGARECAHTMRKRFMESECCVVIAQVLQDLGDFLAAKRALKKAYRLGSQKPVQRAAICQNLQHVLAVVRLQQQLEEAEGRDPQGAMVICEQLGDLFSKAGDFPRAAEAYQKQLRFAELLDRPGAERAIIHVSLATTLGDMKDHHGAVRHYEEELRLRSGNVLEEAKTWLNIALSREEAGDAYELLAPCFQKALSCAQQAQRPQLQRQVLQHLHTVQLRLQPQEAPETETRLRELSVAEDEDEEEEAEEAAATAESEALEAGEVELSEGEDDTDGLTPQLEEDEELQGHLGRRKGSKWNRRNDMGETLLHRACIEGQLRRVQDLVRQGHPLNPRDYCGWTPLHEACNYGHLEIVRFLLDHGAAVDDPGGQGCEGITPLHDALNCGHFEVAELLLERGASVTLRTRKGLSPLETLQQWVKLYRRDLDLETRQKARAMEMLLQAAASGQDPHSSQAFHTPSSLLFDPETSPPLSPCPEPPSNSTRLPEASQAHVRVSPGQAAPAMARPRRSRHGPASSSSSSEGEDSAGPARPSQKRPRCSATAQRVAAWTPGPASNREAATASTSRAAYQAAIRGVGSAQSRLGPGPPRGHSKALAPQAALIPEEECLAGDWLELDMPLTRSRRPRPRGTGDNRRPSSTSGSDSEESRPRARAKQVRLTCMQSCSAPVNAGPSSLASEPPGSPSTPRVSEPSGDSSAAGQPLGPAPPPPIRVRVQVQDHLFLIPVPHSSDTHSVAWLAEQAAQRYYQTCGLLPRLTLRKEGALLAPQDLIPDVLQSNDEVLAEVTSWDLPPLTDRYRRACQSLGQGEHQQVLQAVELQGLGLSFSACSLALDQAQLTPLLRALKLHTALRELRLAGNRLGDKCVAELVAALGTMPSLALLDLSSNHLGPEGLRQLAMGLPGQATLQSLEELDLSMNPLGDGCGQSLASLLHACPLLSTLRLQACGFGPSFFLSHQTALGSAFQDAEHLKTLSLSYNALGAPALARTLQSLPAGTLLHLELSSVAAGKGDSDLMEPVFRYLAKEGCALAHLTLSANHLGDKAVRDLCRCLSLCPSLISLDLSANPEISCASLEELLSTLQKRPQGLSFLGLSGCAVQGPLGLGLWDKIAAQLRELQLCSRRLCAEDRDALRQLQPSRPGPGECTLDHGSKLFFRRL

[1] = biological target: FANCM (human (endogenous in HeLa)) (UniProt Q8IYD8); test: affinity purification with mass spectrometry; FANCM antibody IP from pooled Superose 6 fractions of chromatin proteins released by micrococcal nuclease and DNase I from HU-treated (2 mM, 24 h) HeLa cells; IP buffer 20 mM HEPES pH 7.9, 200 mM NaCl, 5 mM MgCl2, 0.1% Tween 20
[2] = biological target: Flag-tagged FANCM (human) (UniProt Q8IYD8); test: affinity purification with mass spectrometry; Flag antibody purification from HU-treated HEK293 cells stably expressing Flag-FANCM

- binding (Flag-MMS22L (human)): binds
- binding (Flag-TONSL (human)): binds
Molecule: BLM (from UniProt P54132 1-1417)

- binding (Flag-MMS22L (human)): binds
- binding (Flag-TONSL (human)): binds
Molecule: PCNA (from UniProt P12004 1-261)

- binding [1]: binds
- binding [2]: binds
B1: MMS22L (natural protein, human (endogenous in HeLa), UniProt Q6ZRQ5 1-1243, looked up)
chain: T1 sequence
notes: MMS22L, human, endogenous in HeLa cells; source: endogenous, HeLa

- binding [1]: binds
- binding [2]: binds
B2: TONSL (natural protein, human (endogenous in HeLa), UniProt Q96HA7 1-1378, looked up)
chain: T2 sequence
notes: TONSL, human, endogenous in HeLa cells; source: endogenous, HeLa

From doi:10.1101/2025.03.07.642025, “The TONSL-MMS22L complex and FANCM form an interdependent complex on chromatin to counter replication stress” (bioRxiv, 2025)
